Test results from paper PMC7330101.
No constants are given. Whether binding was seen depends on the method and setting. In cells and extracts the contact can be indirect. Some entries that bind do so weakly or less than the wild type.

The chains behind the UniProt entries cited, without tags or fusion partners.
UniProt P35222: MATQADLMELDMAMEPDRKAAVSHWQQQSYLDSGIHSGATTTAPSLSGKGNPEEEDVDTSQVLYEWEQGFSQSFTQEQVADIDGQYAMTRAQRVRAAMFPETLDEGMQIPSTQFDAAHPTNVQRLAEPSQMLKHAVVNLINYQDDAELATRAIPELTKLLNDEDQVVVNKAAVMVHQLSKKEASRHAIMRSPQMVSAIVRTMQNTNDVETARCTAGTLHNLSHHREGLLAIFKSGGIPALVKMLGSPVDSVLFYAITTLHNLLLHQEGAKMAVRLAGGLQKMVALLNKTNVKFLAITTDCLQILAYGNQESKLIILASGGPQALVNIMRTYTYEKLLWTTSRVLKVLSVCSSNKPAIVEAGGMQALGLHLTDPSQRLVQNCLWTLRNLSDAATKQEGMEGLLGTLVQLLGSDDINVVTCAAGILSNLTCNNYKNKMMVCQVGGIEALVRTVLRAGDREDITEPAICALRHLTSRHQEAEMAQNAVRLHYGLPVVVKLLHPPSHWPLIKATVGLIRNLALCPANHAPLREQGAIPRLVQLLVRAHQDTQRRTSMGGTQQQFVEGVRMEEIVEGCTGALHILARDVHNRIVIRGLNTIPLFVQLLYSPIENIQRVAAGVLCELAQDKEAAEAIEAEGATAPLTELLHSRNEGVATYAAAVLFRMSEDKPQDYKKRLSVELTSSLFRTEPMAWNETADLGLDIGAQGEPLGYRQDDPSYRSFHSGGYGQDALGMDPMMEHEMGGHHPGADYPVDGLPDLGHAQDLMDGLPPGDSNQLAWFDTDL

Target: β-catenin (human (endogenous in HUVECs)) (UniProt P35222)
Assay: co-IP; HUVEC lysate (25 mmol/L Tris-HCl pH 7.4, 150 mmol/L NaCl, 0.5% NP-40, 0.5% sodium deoxycholate, 5 mmol/L EDTA); antibody against β-catenin or control IgG overnight at 4°C, protein A or G beads, Western blot; static cells, or cells exposed to PS or OS for 6 h

binding: binds
Substance: Nesprin1 (from UniProt Q8NF91 1-8797)
